Reference: article PMC11156954, “Inhibition and transport mechanisms of the ABC transporter hMRP5” (Nature Communications, 2024)
Results are given in words; binding and its absence hold for the method and conditions named. Some entries that bind do so weakly or less than the wild type.

Molecular target: hMRP5-Δ1-94-8xHis (human) (UniProt O15440)
Experiment: MST; digitonin-purified hMRP5-Δ1-94-8xHis labelled with RED-tris-NTA 2nd Generation dye; serially diluted peptides; 15 min at room temperature; HEPES buffer; 3% LED/excitation power, medium MST power (Monolith NT); both purified

DIGKEYIIPSPGYRSVRERTS (peptide, UniProt O15440 5-25) [Asp5-Ser25 peptide of hMRP5] was tested, and the binding was “binds weakly”.
